No constants are given. Whether binding was seen depends on the method and setting. For some assays here: Binding seen in cells or lysates may run through a third protein. For some assays here: A result given as binding can be weak or reduced; the word gives no strength.
Key:
[1] = biological target: cGAS-FLAG (cyclic GMP-AMP synthase, FLAG-tagged) (not stated (human or mouse cDNA cloned)) (UniProt Q8C6L5); assay: co-IP; WCLs of HEK293T transfected with TRIM56-V5 and cGAS truncation mutants, or cGAS-FLAG and TRIM56 truncation mutants; immunoprecipitation and immunoblotting with the indicated antibodies
[2] = biological target: MBP-cGAS C-terminal region (a.a. 161–522) (mouse); assay: pull-down; both purified

Amino acid sequences for entries named in this document (tags omitted).
UniProt Q8C6L5: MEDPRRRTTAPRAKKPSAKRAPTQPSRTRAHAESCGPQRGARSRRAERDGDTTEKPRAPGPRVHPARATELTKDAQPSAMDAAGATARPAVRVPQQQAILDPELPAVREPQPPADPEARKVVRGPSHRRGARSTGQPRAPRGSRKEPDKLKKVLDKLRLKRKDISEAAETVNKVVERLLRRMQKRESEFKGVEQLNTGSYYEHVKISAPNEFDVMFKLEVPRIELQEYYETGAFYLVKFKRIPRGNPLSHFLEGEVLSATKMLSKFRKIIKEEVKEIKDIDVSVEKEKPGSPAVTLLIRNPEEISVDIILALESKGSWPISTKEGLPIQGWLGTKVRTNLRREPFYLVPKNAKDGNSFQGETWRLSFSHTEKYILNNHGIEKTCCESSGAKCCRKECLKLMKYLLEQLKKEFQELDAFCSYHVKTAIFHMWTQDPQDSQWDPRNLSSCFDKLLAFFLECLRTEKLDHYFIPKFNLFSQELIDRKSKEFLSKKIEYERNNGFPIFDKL

Row | binding [1] | binding [2] | Molecule
1 | binds | – | TRIM56 C-terminus domain (308–531) (from UniProt Q80VI1) (domain or fragment)
2 | – | no binding | TRIM56 purified from HEK293T cells (protein, UniProt Q80VI1 1-734) MNSKVSSPTLLEALSSDFLACKICLEQLHTPKTLPCLHTYCQDCLAQLDIGGQVRCPECREIVPVPAEGVAAFKTNFFVNGLLDLVKARAPGDVHSGKPTCALCPLVGGKSSGGPATARCLDCADDLCQACADGHRCSRQTHKHRVVDLVGYRAGWYDEEARERQASQCPQHPGEALCFLCQPCSQLLCKDCRLGPHIDHPCLPLAEAVRSRKPGLEELLAGVDSNLVELEATRVAEKEALALLREQAASVGTQVEEAAERILKSLLAQKQEVLGQLRALVEAAEEATRERLTKIERQEQVAKAAAAFARRVLSLGLEAEILSLEGAITQRLRQLQDAPWTSGPTRCVLPQLELHPGLEDKNCHLLRLIFEEPKQSPKDSGKGGAGTQGGDEAQGQGDDRTKIGKQGGAQPLTPKEGKDQNPQEDDGVFIERGNRPNKKKKCKGRGKSVSREPSPILRPNLEGSGLLPRPVFSWSFPTRMPGDKRSPRITGLCPYGPQEILVADEQNRVLKRFSLNGDYKGTVQVPEGCSPCSVAALQNAVAFSANAKLYLVSPDGEIQWRRSLSLTQSSHAVAAMPCGDRVAVSVAGHVEVYKKDGSLATRFIPGGKASRGQRALVFLTTSPQGNFVGSDWQQNSVVFCDGLGQVIWEYKGPGLHGCQPGSVSVDKKGYIFLTLREVNKVVILDPKGSLLGDFLTAYHGLEKPRVTTMVDGKYLVVSLSNGTIHVFRVRFPDS

Reference: article PMC5807518
